“Also recorded” adds a separate entry of the source. Where a name gives a salt, the structure may show the parent alone. At least one compound was matched to its structure with a doubt left.
Tests used:
[1] = tested on: chronic constriction injury (CCI) rats; assay: Mechanical allodynia (von Frey monofilaments, 50% paw withdrawal threshold) in chronic constriction injury model; type: in vivo, Wistar rats; conditions: days 8 and 15, vs control (PBS), hydrochloride
Method: (§1) The behavioral animal model of chronic constriction injury (“CCI”) was chosen to evaluate the efficacy of an analgesic and anti-inflammatory agent as a pain and inflammation treatment. This model may mimic pain associated with sciatica in humans.
(§2) Fifty-Six male Wistar rats (Charles River Laboratories, Wilmington, Mass.) weighing 300±26 g the day of surgery (Day 1) were used in this study. All experiments were conducted in accordance with the International Association for the Study of Pain guidelines and approved by the Institutional Animal Care and Use Committee at SRI International, Inc (Menlo Park, Calif.). CCI was induced according to the method of Bennett and Xie. […]
Mechanical allodynia was measured using von Frey monofilaments (Stoelting, Wood Dale, Ill.) with varying stiffness (2.0-15.0 g) on Days −1, 8, and 15 as described previously (see FIG. 4). […] The 50% paw withdrawal threshold response was determined by a sequential increasing and/or decreasing of the stimulus strength (the “up-down method” of Dixon). […] The 50% paw withdrawal threshold was calculated using the formula: 10(Xf+kd)/10,000, where Xf is the final von Frey filament used (log units), k is a value that analyzes the response pattern (taken from the table published by Chaplan et al.), and d is the mean difference between stimuli (log units). […]

[2] = tested on: chronic constriction injury (CCI) rats; assay: Thermal paw withdrawal latency (Hargreaves test) in chronic constriction injury model; type: in vivo, Wistar rats; conditions: days 7 and 14, vs control (PBS), hydrochloride
Method: as §1
as §2, with “Xie. Briefly, each animal was anesthetized by intraperitoneal (IP) injection of sodium pentobarbital at a dose of 60 mg/kg. The animal's common sciatic nerve was exposed and freed from adherent tissue at mid-thigh by separating the biceps femoris muscles by blunt dissection.” for “Xie.”
Withdrawal latencies to a noxious thermal stimulus were measured according to the Hargreaves test using a plantar analgesia instrument (Stoelting, Wood Dale, Ill.) on Days −2, 7, and 14 (see FIG. 3). […] The readings for all animals were averaged and the mean and standard error of the mean (SEM) were determined for each treatment group.

With COc1cccc([C@]2(O)CCCC[C@H]2CN(C)C)c1 (racemic) [Tramadol, (±)cis-2-[(dimethylamino)methyl]-1-(3-methoxyphenyl)cyclohexanol hydrochloride] the “mechanical thresholds (von Frey): reducing pain and/or inflammation” value ([1]; 5 mg/kg/day IP daily) was “effective at reducing pain and/or inflammation for 15 days”, the “mechanical thresholds (von Frey): reducing pain and/or inflammation” value ([1]; 25 mg/kg/day IP daily) was “effective at reducing pain and/or inflammation for 15 days; also recorded: particularly effective at reducing pain and/or inflammation” and the “thermal paw withdrawal latency: reducing pain and/or inflammation” value ([2]; 5 mg/kg/day IP daily) was “effective at reducing pain and/or inflammation for 14 days”. For the same compound, the “thermal paw withdrawal latency: reducing pain and/or inflammation” value ([2]; 25 mg/kg/day IP daily) was “effective at reducing pain and/or inflammation for 14 days; also recorded: particularly effective at reducing pain and/or inflammation”.

Source: patent US20090263489A1, “ANALGESIC AND ANTI-INFLAMMATORY COMPOSITIONS AND METHODS FOR REDUCING, PREVENTING OR TREATING PAIN AND INFLAMMATION” (Warsaw Orthopedic, Inc., priority 2008, published 2009)
